# Experiment: Nonspecific absorption (NSB) of the ultrafiltration unit
# Details: physiological saline, 25 °C; for No Pretreatment NSB (%): UFU not pretreated, n = 3; for Pretreatment NSB (%): UFU pretreated with 5% Tween 80, n = 3
smiles,measurement,setting,value
"CCN1CCN(c2cc3c(cc2F)c(=O)c(C(=O)O)cn3C2CC2)CC1 [Enrofloxacin (EF), Enrofloxacin]",No Pretreatment NSB (%),1 μg/mL,99.24%
same,Pretreatment NSB (%),1 μg/mL,0.52%
same,No Pretreatment NSB (%),5 μg/mL,93.33%
same,Pretreatment NSB (%),5 μg/mL,9.66%
same,No Pretreatment NSB (%),10 μg/mL,82.05%
same,Pretreatment NSB (%),10 μg/mL,16.14%

# Source: article PMC10251843 (Animals : an Open Access Journal from MDPI, 2023)
